The text below walks through data of patent US20240148701A1, “WOULD HEALING METHODS” (The University of Sydney, priority 2021, published 2024).

A short description of this data set: Body weight and blood glucose monitoring, type 2 diabetes model. The class given is in vivo, mouse. Conditions: type 2 diabetes groups, prior to and after infusion.

With `C[C@H](Cc1ccc2c(c1)OC(C(=O)[O-])(C(=O)[O-])O2)NC[C@H](O)c1cccc(Cl)c1.[Na+].[Na+]` [CL 316,243], the “non-fasted blood glucose levels” value is “similar”.
